Results from PubChem BioAssay AID1794844 (National Center for Advancing Translational Sciences (NCATS), 2023).
Among all 2,800 compounds or so, fewer than 10 were called active. Not shown: some 7% with an inconclusive outcome. Calls follow the shape of the dose curve; as a rule, active = well fitted inhibition curve with a large enough effect; inconclusive = small, poorly fitted or top-dose-only effect; inactive = no such curve, though single readings can be large or run the other way. This is one part of the list.

The chains behind the UniProt entries cited, without tags or fusion partners. Where a name states a change or a piece, a line headed by the entry shows the natural chain unless it says otherwise.
UniProt C7C422: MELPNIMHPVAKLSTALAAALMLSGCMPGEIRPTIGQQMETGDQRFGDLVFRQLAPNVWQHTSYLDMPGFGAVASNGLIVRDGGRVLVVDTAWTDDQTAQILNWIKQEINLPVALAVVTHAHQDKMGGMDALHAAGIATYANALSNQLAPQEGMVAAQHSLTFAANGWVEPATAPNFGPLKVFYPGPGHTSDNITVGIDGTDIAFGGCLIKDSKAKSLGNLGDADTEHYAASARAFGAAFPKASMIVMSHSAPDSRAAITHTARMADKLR

Biological target: Metallo-beta-lactamase type 2 (Klebsiella pneumoniae) (UniProt C7C422)
Test: qHTS to identify inhibitors of the New Delhi Metallo-beta-lactamase (NDM): Nitrocefin screen against the machine-based learning selections. Also: % of control where 0% means no effect.
Settings: NDM-1 enzyme, nitrocefin hydrolysis, absorbance 485 nm; activity, negative = inhibition: at the top concentration
In short: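 NDM-1 (2 nM final) in 50 mM HEPES pH 7.0, 1 uM Zn2SO4, 0.01% Tween20 was preincubated with compounds for >30 min. Nitrocefin (16.7 uM final) was read at 485 nm after 15 min, and meropenem (50 uM final) at 300 nm after 30 min.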

activity, negative = inhibition, inactive:
C=CCC1(CO)CCCN(C(=O)c2cccc(N3CCNC3=O)c2)C1 (stereo not drawn) 0.467%, Cc1cc(=O)n(CC(=O)Nc2cccc(F)c2)c(N2CCc3ccccc3C2)n1 -0.519%, O=S(=O)(c1cccs1)N1CCC(n2cnnc2-c2ccccc2)CC1 1.04%, Nc1cc(N2CC[C@@H](N3CCN(CCc4ccccc4)CC3)[C@H](O)C2)nc(N)n1 -1.07%, Cn1ccnc1CN1C(=O)CO[C@H](c2ccc(NC(=O)CC(C)(C)C)cc2)[C@H]1CO -1.71% [at 57.5 µM], Cc1ccc(F)c(C(=O)N[C@H](Cc2ccccc2)C2CC(O)C2)c1Cl (stereo partly drawn) 2.51%, O=C(NCC1(O)CCCCC1)C1CCN(c2nc(-c3ccccc3)nc3c2CCC3)CC1 -5.8%, CCOc1cc(CN2CCC(C)(c3noc(C4CCOCC4)n3)CC2)ccc1O -0.443%, CC(C)CN1CC[C@H](c2nc3ncccc3[nH]2)C1 -0.79% [at 76.7 µM], CCCCCC(=O)N[C@H]1C[C@@H](Cc2cc(CN3CCOCC3)on2)C1(C)C -21.3% [at 57.5 µM], Cc1noc2c(N3CCOCC3)cc(-c3cccnc3)nc12 5.33% [at 57.5 µM], c1ccc(CCCc2noc(-c3ccc(NCc4ccccn4)nc3)n2)cc1 19%, Cc1ccc(S(=O)(=O)N2C[C@@H]3OCC(=O)N(Cc4ccc(F)cc4)[C@@H]3C2)cc1 -6.21% [at 57.5 µM], O=C(Nc1ccc(F)cc1)N1C[C@@H]2OCC(=O)N(Cc3ccc(OC(F)(F)F)cc3)[C@@H]2C1 -0.193%, COc1ccc(-c2ccc3nnc(CNC(=O)Cc4cccc(F)c4)n3n2)cc1 4.81%, COc1ccc(-c2ccnc(N[C@H]3CO[C@H]4[C@@H]3OC[C@H]4OCC(N)=O)n2)cc1 -2.07% [at 57.5 µM], CN1c2cccnc2CN(Cc2cccc(Cl)c2)CC[C@H]1CO 5.15% [at 57.5 µM], O=C(NCc1ccc(-c2cnc3c(Oc4ccccc4)nccn23)cc1)c1cccc(O)c1 11.3% [at 57.5 µM], CCOc1cc(=O)n2c(c1C(=O)Nc1ccc(F)c(C)c1)CCCC2 0.524%, Fc1cccc(CN2CCC(Cc3nc(-c4ccncc4)n[nH]3)C2)c1 (stereo not drawn) 9.16%, COCCN1C(=O)[C@@H]2C[C@@H](CN2C(=O)NCc2ccccc2)Oc2ccccc21 -24.9% [at 57.5 µM], COc1cccc(CC(=O)NC2CCN(c3cnn(C)c(=O)c3)CC2)c1 -0.816%, O=C1CCCN1CCCN1C(=O)[C@H]2CN(Cc3ccc(F)c(Cl)c3)C[C@H]2C1=O 2.63%, Cc1ccoc1-c1nc2ccncc2[nH]1 -13.1% [at 76.7 µM], COc1ccc(C(=O)N2CCc3ccc(C(=O)O)cc32)cc1 -2.63%, CN(CC1CCOC1)C(=O)Nc1cccc(Br)c1 (stereo not drawn) -1.2%, C=CCN(C)C(=O)[C@@H](C)C1CC[C@@]2(C)Cc3sc(-c4cccnc4)nc3[C@@H](C)[C@@H]2[C@H]1O (stereo partly drawn) -0.244% [at 57.5 µM], CC1=C[C@@H](CC#N)[C@H](C(C)C)C[C@H]1CC(=O)NC1CC1 -0.565% [at 76.7 µM], CC(=O)NC1CCN(Cc2nc(-c3sccc3C)oc2C)CC1 -6.96%, Cc1ccc(C(=O)N2CCOC(c3ccc(Cl)c(Cl)c3)C2)c(=O)n1C (stereo not drawn) -9.35%, O=C(O)c1cccc(-c2n[nH]c3c2CC(=O)N(CCOc2ccccc2)C3)c1 -7.98% [at 57.5 µM], Cc1oc(C(O)c2ccccc2F)nc1C(=O)Nc1ccccc1C(N)=O (stereo not drawn) 3.2% [at 57.5 µM], O=C(Nc1cccnc1)N1CCOC[C@H](Oc2ccccc2)C1 2.16% [at 57.5 µM], COCC1(c2nc(C3CCOCC3)nn2-c2ccccc2)CCC1 1.46%, c1cc(N2CCOCC2)ncc1-c1noc([C@@H]2CCCN2C2CCOCC2)n1 2.28% [at 57.5 µM], O=C(c1ccc(N2CCC(NCC(c3ccccc3)c3ccccc3)CC2)cc1)N1CCCC(O)C1 (stereo not drawn) -1.18%, CN(CC1CCOCC1)C(=O)Nc1ccc(Cl)cc1 -5.57%, Cc1ccc(NC(=O)N2CCCC2c2nncn2C2CCCC2)cc1F (stereo not drawn) -3.6%, COc1cccc(-c2cc(C(=O)NCCOc3ccccc3)[nH]n2)c1 -0.0667%, CN(Cc1ccccc1)C(=O)[C@@H]1Cc2nc[nH]c2CN1C(=O)CC(C)(C)CC(=O)O 21.4% [at 57.5 µM], Cc1ccccc1-c1cnc2[nH]cc(CC(=O)NCc3ccco3)c2c1 -0.559% [at 57.5 µM], COCC1CN(C(C)=O)CC12CCN(Cc1cccc(C#N)c1)CC2 (stereo not drawn) 6.56%, CC(C)(CC(=O)O)CC(=O)N1CCN2C(=O)N(CCc3cccs3)C(=O)[C@H]2C1 -5.59% [at 57.5 µM], OCc1cccc(-c2ccc3ncc(Nc4ccccc4Cl)n3n2)c1 -5.71% [at 57.5 µM], CCc1[nH]nc(-c2nc(C3CC3)nn2-c2ccc(S(N)(=O)=O)cc2)c1C 3.32%, COC(=O)[C@@H](Cc1cccnc1)NC(=O)[C@H]1CN(C(=O)Nc2ccccc2)CCN1S(=O)(=O)c1ccccc1 -4.1%, CCCCN1C(=O)[C@@H]2C[C@@H](O)CN2C2(CN(CC3CC3)C2)C1=O -1% [at 57.5 µM], CSc1ccc(C(C(=O)O)N2CCN(Cc3csc(C)n3)CC2)cc1 (stereo not drawn) 21.9%, CC(C)n1cnnc1-c1nn(C)c2c1CN(C(=O)Cc1c[nH]c3ccccc13)CC2 -0.623%, Cn1ccc2c(C(=O)NCCc3cnc[nH]3)nc(-c3cccc(CO)c3)cc21 23.7% [at 57.5 µM], O=C(N[C@@H]1COCC[C@@H]1OCc1ccccc1)c1nc2ncccc2[nH]1 -0.591%, Cn1ccnc1CN1C[C@@H](F)[C@@H](OCc2nc3ccc(C(F)(F)F)cc3[nH]2)C1 2.16% [at 57.5 µM], O=C(Nc1ccc([C@H]2OCC(=O)N(Cc3cccnc3)[C@@H]2CO)cc1)c1ccnc(Cl)c1 -3.55%, O=C(c1cc2cn(C3CC3)cc2s1)N1CCc2ccccc2C1 -7.42%, Cc1cc(C(=O)N[C@@H]2CCC[C@@H](C(=O)N3CCN(C)CC3)CC(=O)N(C)C2)no1 1.92% [at 57.5 µM], C[C@]1(O)CCN(C(=O)CC(c2ccccc2)c2ccccc2)C[C@@H]1O -1.31%, CN1Cc2ccc(NCc3ccccc3)nc2C(C)(C(=O)NCCc2cnc[nH]2)C1 (stereo not drawn) -2.85% [at 57.5 µM], CNC(=O)N1CCOc2ccc(CCC(=O)NCC3CC3)cc2C1 -2.19%, Cc1ccc(S(=O)(=O)N2C[C@@H]3OCC(=O)N(Cc4ccc(OC(F)(F)F)cc4)[C@@H]3C2)cc1 1.31%, CCS(=O)(=O)N1CCC(CC(=O)NCc2ccccc2)C1 (stereo not drawn) -1.44%, Cn1nc(C(=O)NCc2nnc3ccc(-c4ccccc4)nn23)c2ccccc21 -3%, Cc1ccc(S(=O)(=O)N2CCn3c(n[nH]c3=O)C2)c(C)c1 -10.8%, CCC[C@@H]1CN(Cc2[nH]cc(C)c(=O)c2C)C[C@H]1C(=O)O -6.18%, Cc1cc(=O)n(CC(=O)Nc2ccccc2C)c(-c2ccc(F)cc2)n1 34%, Cc1nn(Cc2ccccc2)c(C)c1[C@@H]1C=C[C@@H](NC(=O)CCCC(=O)O)C1 -6.73% [at 57.5 µM], Cc1cc(=O)n(CC(=O)Nc2cccc(C(F)(F)F)c2)c(N2CCN(c3ccccc3)CC2)n1 -3.33%, CC(=O)Nc1cccc(-c2csc(CN3CCCC(C)(NC(C)=O)C3)c2)c1 (stereo not drawn) -2.8% [at 57.5 µM], COCCN1C(=O)[C@H]2CN(Cc3cccc(OC)c3)C[C@H]2C1=O -4.3%, CC(=O)N1CCc2nc(-c3ccc(Cl)cc3)nc(-c3ccccc3)c2C1 -1.17%, CC1=NOC2(CCN(C(=O)c3ccc(C)cc3)CC2)C1 1.58% [at 57.5 µM], O=C1Nc2ccc(-c3ccc4c(c3)OCO4)cc2C(=O)N2CCN(C(=O)c3cccs3)C[C@H]12 -0.771%, Cn1nc(C2CCN(C(=O)c3cccc(Cl)c3)CC2)[nH]c1=O -0.298% [at 57.5 µM], CN(C)C(=O)NC1CCN(c2nc3ncccc3o2)CC1 -2.93% [at 57.5 µM], CC(C)c1ccc(Nc2n[nH]c(C(O)c3ccccc3)n2)cc1 (stereo not drawn) 8.05% [at 57.5 µM], CCN(CC)Cc1cnc2c(C(=O)N3CCC(N4CCCC4)CC3)cnn2c1 -2.66%, Cc1cc(OC(C)C(=O)N2CCc3c(nc[nH]c3=O)C2)cc(C)c1Cl (stereo not drawn) 1.34%, C[C@@H](NC(=O)[C@@H]1C[C@@H](NS(=O)(=O)c2cn(C)cn2)CCN1C(=O)c1ccco1)C(N)=O -0.956%, CCCC1C=CCN1C(=O)c1coc(CN2CCN(c3ccccc3F)CC2)n1 (stereo not drawn) -8.11%, Cc1c(C(C)NC(=O)c2ccc(C#N)nc2)cnn1-c1ccc(F)cc1F (stereo not drawn) 2.4%, O=C(Nc1cccc(-c2ccc(F)cc2)c1)C1CCCN(C(=O)c2cccnc2)C1 (stereo not drawn) 2.57%, Cc1noc(C)c1S(=O)(=O)N1C[C@@H](C(N)=O)[C@H](C2CCN(C)CC2)C1 0.0336%, Cc1cc(C)nc(N2CCN(C(=O)C3CC(=O)N(CC(C)C)C3)CC2)n1 (stereo not drawn) -0.903%, Cc1ccc2c(c1)SCC(=O)N2CC(=O)N(C)Cc1ccoc1 -3.58%, O=C1N(C2CCOCC2)C[C@H]2CN(Cc3ccccc3F)CCN12 2.63% [at 57.5 µM], NC(=O)Cc1c[nH]c2ncc(-c3cccc(OC(F)(F)F)c3)cc12 6.36% [at 57.5 µM], CC(C)C[C@@H](NC(=O)C1=C[C@@H](NC(=O)c2cnccn2)[C@@H](O)[C@H](O)C1)C(N)=O -1.3% [at 57.5 µM], COc1ccc(-c2nnc([C@H]3CCN(c4ncccn4)C3)o2)cc1 0.508% [at 57.5 µM], COc1ccc(CN2CCNc3cnc(Nc4cccnc4)cc3C2)cc1O 3.06% [at 57.5 µM], Cc1cc(C)n(Cc2c(C(=O)NCC34CCC=C3N(C)C(=O)CC4)noc2C)n1 (stereo not drawn) -4%, CCN(CC)CC[C@H]1CN(C(=O)NC2CCCCC2)CC[C@H]1CC(=O)O -2.93% [at 57.5 µM], COc1ccc(C(=O)N2C[C@@H]3OCC(=O)N(CC4CC4)[C@@H]3C2)cc1 -3.26% [at 57.5 µM], Cc1ccccc1[C@H]1C[C@@H](O)[C@@H](O)[C@@H]1NC(=O)c1c(-c2ccccc2)noc1C 7.56% [at 57.5 µM], COCCN(C)C[C@@H]1CN(C(=O)c2cc3ccccc3n(C)c2=O)C[C@@H]1CO -3.85%, Cn1cc(C(NC(=O)c2cnc(N)nc2-c2ccccc2)C2CC(O)C2)cn1 (stereo not drawn) 1.03%, NC(=O)[C@@H]1CCCN1C(=O)c1ccc2oc(-c3cccc(F)c3)nc2c1 -3.39%, CN(C)c1cccc(C(=O)N2CCCC(n3cc(-c4nc(C5CC5)no4)nn3)C2)c1 (stereo not drawn) 2.17%, Cc1ccccc1C(CC(=O)NCc1cccnc1)c1ccccc1 (stereo not drawn) -3.05%, COc1ccc2[nH]cc(CCNC(=O)C3(Cc4cccnc4)CCCCC(=O)N3)c2c1 (stereo not drawn) 1.89%
